In PubChem BioAssay (EPA / NIEHS):
The inconclusive results got no clear call from the source; some entries with a clear call stand among them for comparison. Where the call is inconclusive, the potency comes from a doubtful curve fit. The source made the active and inactive calls. The calls were made as follows: active = hit-call score of the fitted dose curve at least 0.9, where 1 is the maximum; inconclusive = response in the unintended direction; inactive = score below 0.9.

Amino acid sequences for entries named in this document (tags omitted). A change or cut given only in a name is not applied to a line headed by its entry.
UniProt O15379: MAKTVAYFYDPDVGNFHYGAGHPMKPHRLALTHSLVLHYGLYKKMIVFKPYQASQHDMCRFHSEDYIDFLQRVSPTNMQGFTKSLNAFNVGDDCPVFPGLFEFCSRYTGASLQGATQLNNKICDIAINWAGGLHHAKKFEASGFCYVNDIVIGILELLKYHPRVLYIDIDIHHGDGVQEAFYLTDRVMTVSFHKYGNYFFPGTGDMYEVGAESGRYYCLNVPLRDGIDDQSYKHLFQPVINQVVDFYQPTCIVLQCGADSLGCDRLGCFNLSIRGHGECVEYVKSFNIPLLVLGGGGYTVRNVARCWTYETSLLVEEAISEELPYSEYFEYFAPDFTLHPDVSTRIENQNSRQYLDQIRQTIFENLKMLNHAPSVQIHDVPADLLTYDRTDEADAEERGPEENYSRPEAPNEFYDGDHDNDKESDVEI
UniProt P49841: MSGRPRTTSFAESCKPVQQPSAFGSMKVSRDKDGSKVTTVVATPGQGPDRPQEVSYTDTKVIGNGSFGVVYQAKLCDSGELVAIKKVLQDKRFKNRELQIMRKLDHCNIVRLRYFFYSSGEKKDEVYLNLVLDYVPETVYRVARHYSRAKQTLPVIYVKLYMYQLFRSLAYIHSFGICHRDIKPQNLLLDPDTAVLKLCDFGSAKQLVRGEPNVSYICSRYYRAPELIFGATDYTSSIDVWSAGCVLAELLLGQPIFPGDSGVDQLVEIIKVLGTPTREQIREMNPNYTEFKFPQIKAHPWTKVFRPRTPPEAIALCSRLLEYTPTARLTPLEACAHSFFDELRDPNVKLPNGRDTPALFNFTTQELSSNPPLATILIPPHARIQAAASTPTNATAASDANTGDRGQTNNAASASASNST

target: Histone deacetylase 3 (Homo sapiens) (UniProt O15379); test: NVS_ENZ_hHDAC3: NovaScreen (NVS) Enzymatic Assay for human Histone Deacetylase 3 (HDAC3) (AID 2283163)
Method in brief: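 Cell-free enzyme format: loss of fluorescent product after mobility-shift separation, 1 h incubation, recombinant human HDAC3. Single 25 uM duplicate screen first, then concentration series to a 50 uM top for hits; DMSO as baseline.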

**Q.** For `NC(=O)NN=Cc1ccc([N+](=O)[O-])o1`, which AC50 is on record?
**A.** active: 1.26 µM

**Q.** Which AC50 does the source give for `NC(=O)N1c2ccccc2C=Cc2ccccc21` here?
**A.** inconclusive: 0.147 µM

**Q.** With `O=c1c(O)c(-c2ccc(O)c(O)c2)oc2cc(O)cc(O)c12` as the compound, how does the outcome read?
**A.** inactive

**Q.** With `C=CCOC(=O)c1ccccc1C(=O)OCC=C` as the compound, how does the AC50 read?
**A.** inconclusive: 0.19 µM

**Q.** With `C[C@]12C=CC(=O)C=C1CC[C@@H]1[C@@H]2C(=O)C[C@@]2(C)[C@H]1CC[C@]2(O)C(=O)CO` as the compound, how does the AC50 read?
**A.** inconclusive: 25 µM

**Q.** With `CC[C@H](C)C(=O)O[C@H]1C[C@@H](C)C=C2C=C[C@H](C)[C@H](CC[C@@H]3C[C@@H](O)CC(=O)O3)[C@H]21` as the compound, how does the AC50 read?
**A.** inconclusive: 0.0957 µM

**Q.** Which outcome does the source give for `Cc1ccc(N)cc1O` here?
**A.** inactive

**Q.** For `CC(=O)N1CCN(c2ccc(OC[C@H]3CO[C@](Cn4ccnc4)(c4ccc(Cl)cc4Cl)O3)cc2)CC1`, which outcome is on record?
**A.** inactive

**Q.** With `CCCCCCCCOC(=O)c1cc(O)c(O)c(O)c1` as the compound, how does the AC50 read?
**A.** inconclusive: 0.0153 µM

**Q.** Which AC50 does the source give for `C[C@]12C=CC(=O)C=C1CC[C@H]1[C@@H]3C[C@@H](O)[C@](O)(C(=O)CO)[C@@]3(C)C[C@H](O)[C@@]12F` here?
**A.** inconclusive: 0.151 µM

target: Glycogen synthase kinase-3 beta (Homo sapiens) (UniProt P49841); test: NVS_ENZ_hGSK3b: NovaScreen (NVS) Enzymatic Assay for human Glycogen Synthase Kinase-3 beta (GSK3b) (AID 2283165)
Method in brief: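 Recombinant enzyme with specific fluorescent substrate, 1 h, product separated by electrophoretic mobility shift. Primary duplicate screen at 25 uM; actives (e.g. 30% inhibition) followed in singleton concentration-response to 50 uM. Signal loss fitted versus DMSO.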

**Q.** Which outcome does the source give for `CCCCCCCCCCCCO` here?
**A.** inactive

**Q.** For `c1ccc2c(c1)-c1cccc3c1c-2cc1ccccc13`, which AC50 is on record?
**A.** inconclusive: 25 µM

**Q.** Which AC50 does the source give for `c1ccc2ccccc2c1` here?
**A.** inconclusive: 2.78 µM

**Q.** For `O=c1c(O)c(-c2ccc(O)c(O)c2)oc2cc(O)cc(O)c12`, which AC50 is on record?
**A.** active: 0.073 µM

**Q.** `COc1ccc(C(=O)Nc2nc3ccccc3c(NCc3ccccc3)c2C#N)cc1` was tested. Which AC50 did it give?
**A.** inconclusive: 25 µM

**Q.** Which outcome does the source give for `COc1ccc(OC(F)(F)F)cc1CN[C@H]1CCCN[C@H]1c1ccccc1` here?
**A.** inactive

**Q.** With `c1ccc2[nH]c(-c3cscn3)nc2c1` as the compound, how does the outcome read?
**A.** inactive

**Q.** With `NC(=O)Cn1c(=O)cc(CCN2CCN(c3nccc4sccc34)CC2)c2ccc(F)cc21` as the compound, how does the outcome read?
**A.** inactive

**Q.** For `C[C@]12CC[C@@H]3c4ccc(O)cc4CC[C@H]3[C@@H]1CC[C@@H]2O`, which AC50 is on record?
**A.** inconclusive: 25 µM

**Q.** For `Cc1ccc(N)cc1O`, which outcome is on record?
**A.** inactive

**Q.** With `Cc1cc2c(cc1C(F)(F)F)N(C(=O)Nc1ccc(Oc3cccnc3C)nc1)CC2` as the compound, how does the AC50 read?
**A.** inconclusive: 23 µM

**Q.** How did the AC50 turn out when `Nc1ccc(Nc2ccccc2)cc1` was run?
**A.** inconclusive: 25 µM

**Q.** How did the AC50 turn out when `OCC(CO)n1cnc(-c2ccc(F)cc2)c1-c1ccnc(Oc2ccccc2)n1` was run?
**A.** inconclusive: 12.2 µM

**Q.** For `CCc1nc(N)nc(N)c1-c1ccc(Cl)cc1`, which AC50 is on record?
**A.** inconclusive: 25 µM

**Q.** How did the AC50 turn out when `O=C(O)c1ccccc1` was run?
**A.** inconclusive: 25 µM

**Q.** With `O=C(O)CC(O)(CC(=O)O)C(=O)O` as the compound, how does the AC50 read?
**A.** inconclusive: 25 µM

**Q.** With `O=C(O)c1cccc(Oc2ccccc2)c1` as the compound, how does the AC50 read?
**A.** inconclusive: 25 µM

**Q.** How did the outcome turn out when `O=P(OC(CCl)CCl)(OC(CCl)CCl)OC(CCl)CCl` was run?
**A.** inactive
